In the test the target is T1, iron regulatory protein 1 (IRP1) (human (endogenous in PANC-1 and Patu-8988)) (UniProt P21399).
T1 sequence: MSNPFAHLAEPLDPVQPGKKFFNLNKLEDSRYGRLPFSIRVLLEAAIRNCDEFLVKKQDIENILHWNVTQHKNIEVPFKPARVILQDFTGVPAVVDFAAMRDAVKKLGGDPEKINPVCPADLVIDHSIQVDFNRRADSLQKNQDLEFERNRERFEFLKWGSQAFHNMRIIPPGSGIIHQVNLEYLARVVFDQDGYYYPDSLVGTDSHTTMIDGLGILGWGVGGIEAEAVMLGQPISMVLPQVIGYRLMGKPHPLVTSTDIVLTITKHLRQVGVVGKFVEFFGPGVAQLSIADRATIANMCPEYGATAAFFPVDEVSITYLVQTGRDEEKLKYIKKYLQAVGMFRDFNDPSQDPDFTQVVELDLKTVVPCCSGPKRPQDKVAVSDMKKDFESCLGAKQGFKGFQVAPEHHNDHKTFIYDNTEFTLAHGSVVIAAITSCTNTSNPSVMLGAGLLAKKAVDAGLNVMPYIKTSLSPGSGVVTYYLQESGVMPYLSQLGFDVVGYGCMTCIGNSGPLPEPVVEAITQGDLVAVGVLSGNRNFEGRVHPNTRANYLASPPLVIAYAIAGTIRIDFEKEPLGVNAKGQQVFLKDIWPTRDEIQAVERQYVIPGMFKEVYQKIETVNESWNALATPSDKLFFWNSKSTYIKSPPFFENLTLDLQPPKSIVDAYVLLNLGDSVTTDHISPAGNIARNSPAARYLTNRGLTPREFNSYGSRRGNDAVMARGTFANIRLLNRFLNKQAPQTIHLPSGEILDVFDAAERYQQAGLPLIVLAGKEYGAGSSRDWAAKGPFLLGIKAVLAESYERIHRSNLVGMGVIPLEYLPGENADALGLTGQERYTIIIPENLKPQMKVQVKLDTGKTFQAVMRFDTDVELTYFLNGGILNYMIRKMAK
Put plainly: affinity purification with mass spectrometry; co-immunoprecipitation with IRP1 antibody, then liquid chromatography-mass spectrometry (gel strip); hits intersected with PRO-DIA proteome (IRP1-overexpressed) and two GSEA gene sets; cell line not stated.

No constants are given. Whether binding was seen depends on the method and setting. In cells and extracts the contact can be indirect. Here binding means that the protein was enriched with, or labelled near, the bait; the list need not be complete.

B1: A + T rich interaction domain protein 3a (ARID3A) (protein, UniProt Q99856 1-593)
chain: MKLQAVMETLLQRQQRARQELEARQQLPPDPPAAPPGRARAAPDEDREPESARMQRAQMAALAAMRAAAAGLGHPASPGGSEDGPPGSEEEDAAREGTPGSPGRGREGPGEEHFEDMASDEDMKPKWEEEEMEEDLGEDEEEEEEDYEDEEEEEDEEGLGPPGPASLGTTALFPRKAQPPQAFRGDGVPRVLGGQERPGPGPAHPGGAAHVAPQLQPPDHGDWTYEEQFKQLYELDGDPKRKEFLDDLFSFMQKRGTPVNRIPIMAKQVLDLFMLYVLVTEKGGLVEVINKKLWREITKGLNLPTSITSAAFTLRTQYMKYLYPYECEKRGLSNPNELQAAIDSNRREGRRQSFGGSLFAYSPGGAHGMLSSPKLPVSSLGLAASTNGSSITPAPKIKKEEDSAIPITVPGRLPVSLAGHPVVAAQAAAVQAAAAQAAVAAQAAALEQLREKLESAEPPEKKMALVADEQQRLMQRALQQNFLAMAAQLPMSIRINSQASESRQDSAVNLTGTNGSNSISMSVEINGIMYTGVLFAQPPAPTPTSAPNKGGGGGGGSSSNAGGRGGNTGTSGGQAGPAGLSTPSTSTSNNSLP
For B1, the binding entry is reported as “binds”.

These data come from PMC13254595.
